We go through one substance from PMC11140001.

Sequences of proteins named here, by UniProt entry; tags and fusion partners are left off.
UniProt Q92830: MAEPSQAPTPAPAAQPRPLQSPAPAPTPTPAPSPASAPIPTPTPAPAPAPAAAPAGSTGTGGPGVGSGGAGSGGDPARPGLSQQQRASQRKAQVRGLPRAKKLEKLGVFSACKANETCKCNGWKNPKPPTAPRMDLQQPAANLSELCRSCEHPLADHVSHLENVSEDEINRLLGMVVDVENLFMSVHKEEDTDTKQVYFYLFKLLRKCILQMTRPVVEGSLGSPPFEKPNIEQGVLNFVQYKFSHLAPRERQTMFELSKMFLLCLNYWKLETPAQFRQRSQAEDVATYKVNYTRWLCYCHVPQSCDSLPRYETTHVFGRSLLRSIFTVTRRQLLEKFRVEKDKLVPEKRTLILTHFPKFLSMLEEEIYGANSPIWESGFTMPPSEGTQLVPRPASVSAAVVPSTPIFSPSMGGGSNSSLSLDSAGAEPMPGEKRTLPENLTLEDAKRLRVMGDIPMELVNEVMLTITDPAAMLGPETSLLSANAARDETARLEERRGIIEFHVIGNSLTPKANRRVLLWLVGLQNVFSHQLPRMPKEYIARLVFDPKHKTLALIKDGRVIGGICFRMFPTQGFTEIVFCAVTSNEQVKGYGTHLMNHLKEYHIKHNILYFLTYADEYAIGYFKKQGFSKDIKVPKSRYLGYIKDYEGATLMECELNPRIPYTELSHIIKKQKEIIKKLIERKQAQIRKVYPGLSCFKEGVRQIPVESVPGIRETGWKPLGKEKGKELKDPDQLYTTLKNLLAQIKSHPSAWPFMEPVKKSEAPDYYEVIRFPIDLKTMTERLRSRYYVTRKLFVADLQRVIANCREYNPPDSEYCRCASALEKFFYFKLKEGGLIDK

No constants are given. Whether binding was seen depends on the method and setting. In cells and extracts the contact can be indirect. Some binding calls cover weakened binding; strength is not graded here.

For the experiment, the target named is T1, CBX4 (human (endogenous in A549)) (UniProt O00257).
T1 sequence: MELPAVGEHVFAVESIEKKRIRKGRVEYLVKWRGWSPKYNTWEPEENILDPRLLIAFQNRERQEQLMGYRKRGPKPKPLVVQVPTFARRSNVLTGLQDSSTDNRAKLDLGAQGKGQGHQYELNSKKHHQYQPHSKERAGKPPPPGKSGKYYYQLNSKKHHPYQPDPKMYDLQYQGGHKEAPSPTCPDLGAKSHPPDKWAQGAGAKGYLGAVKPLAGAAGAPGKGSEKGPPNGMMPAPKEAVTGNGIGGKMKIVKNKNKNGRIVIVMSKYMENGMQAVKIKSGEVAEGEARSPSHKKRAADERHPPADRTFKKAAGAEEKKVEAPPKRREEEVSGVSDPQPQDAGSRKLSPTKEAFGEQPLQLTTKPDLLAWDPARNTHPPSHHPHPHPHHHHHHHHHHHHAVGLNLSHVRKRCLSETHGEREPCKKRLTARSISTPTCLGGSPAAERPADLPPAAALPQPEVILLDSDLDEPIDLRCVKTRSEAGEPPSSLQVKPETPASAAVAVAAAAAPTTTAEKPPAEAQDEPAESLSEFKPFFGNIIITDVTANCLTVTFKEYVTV
The experiment is described as follows: co-IP; endogenous co-immunoprecipitation from A549 cell lysate with anti-CBX4 or anti-GCN5 (normal IgG as control), protein A/G magnetic beads, 4 °C; lysis buffer 50 mM Tris-HCl pH 7.4, 150 mM NaCl, 1 mM EDTA, 0.5% Triton X-100; Western blotting.

As to GCN5 (from UniProt Q92830 1-837), the binding result is recorded as “binds”.
